PMC7224386
Results are given in words; binding and its absence hold for the method and conditions named. In cells and extracts the contact can be indirect. Some entries that bind do so weakly or less than the wild type. For some assays here: Sequences can lack the tags named with a protein.

Amino acid sequences for entries named in this document (tags omitted).
UniProt Q9HAU4: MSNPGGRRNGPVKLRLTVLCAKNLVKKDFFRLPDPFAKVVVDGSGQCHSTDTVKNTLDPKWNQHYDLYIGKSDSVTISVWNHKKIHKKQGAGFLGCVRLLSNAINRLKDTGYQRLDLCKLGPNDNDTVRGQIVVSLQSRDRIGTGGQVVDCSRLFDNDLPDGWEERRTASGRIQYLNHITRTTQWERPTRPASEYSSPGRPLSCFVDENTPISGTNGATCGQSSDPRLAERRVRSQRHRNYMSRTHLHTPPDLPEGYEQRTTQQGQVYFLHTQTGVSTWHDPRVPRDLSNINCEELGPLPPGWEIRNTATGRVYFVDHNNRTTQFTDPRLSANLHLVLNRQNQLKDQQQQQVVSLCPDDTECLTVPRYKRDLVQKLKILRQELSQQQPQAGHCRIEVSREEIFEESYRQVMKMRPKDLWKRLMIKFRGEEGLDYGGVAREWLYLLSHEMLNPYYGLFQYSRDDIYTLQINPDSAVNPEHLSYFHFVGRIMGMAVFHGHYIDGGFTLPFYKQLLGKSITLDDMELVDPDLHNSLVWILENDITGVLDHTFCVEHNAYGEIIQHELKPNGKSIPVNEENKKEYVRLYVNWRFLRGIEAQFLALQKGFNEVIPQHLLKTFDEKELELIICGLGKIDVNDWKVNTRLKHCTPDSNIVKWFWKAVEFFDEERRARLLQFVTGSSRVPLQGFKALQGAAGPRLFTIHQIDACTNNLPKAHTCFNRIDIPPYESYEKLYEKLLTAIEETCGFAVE

Legend:
[1] = molecular target: T1, Myc-TRAF4 (full-length pcDNA3.1(+)-Myc-TRAF4) (human) (UniProt Q9BUZ4); assay: co-IP; 293T cells co-transfected with Myc-TRAF4 (wild type or deletion mutants) and Flag-Smurf2; extracts in modified RIPA buffer; immunoprecipitation with anti-Myc (reciprocal with anti-Flag for the wild type), western blot
T1 sequence: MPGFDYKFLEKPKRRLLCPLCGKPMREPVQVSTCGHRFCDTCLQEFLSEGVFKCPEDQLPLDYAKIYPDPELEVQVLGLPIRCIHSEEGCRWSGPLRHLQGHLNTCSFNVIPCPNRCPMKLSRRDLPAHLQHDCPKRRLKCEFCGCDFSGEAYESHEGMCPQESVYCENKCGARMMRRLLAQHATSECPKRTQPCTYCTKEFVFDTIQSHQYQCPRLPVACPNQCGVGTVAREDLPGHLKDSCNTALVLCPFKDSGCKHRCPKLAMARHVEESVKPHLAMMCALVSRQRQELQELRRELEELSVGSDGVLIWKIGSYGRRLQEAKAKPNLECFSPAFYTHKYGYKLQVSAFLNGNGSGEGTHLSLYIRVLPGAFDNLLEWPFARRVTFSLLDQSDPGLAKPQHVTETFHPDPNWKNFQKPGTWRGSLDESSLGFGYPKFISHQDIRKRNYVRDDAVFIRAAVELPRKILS

[2] = molecular target: T2, TNF receptor-associated factor 4 (TRAF4), endogenous in MSCs (human (endogenous in MSCs)) (UniProt Q9BUZ4); assay: co-IP; reciprocal co-IP/western blot of endogenous proteins from MSC extracts in modified RIPA buffer; anti-TRAF4 or anti-Smurf2 (IgG control), protein-G agarose, 4 °C
T2 sequence: T1 sequence

Row | binding [1] | binding [2] | Substance
1 | binds |  | Flag-Smurf2 (full-length pcDNA3.1(+)-Flag-Smurf2) (from UniProt Q9HAU4 1-748)
2 |  | binds | Smad ubiquitination-related factor 2 (Smurf2), endogenous in MSCs (from UniProt Q9HAU4 1-748)
